Data: PubChem BioAssay (NCATS)
Shown are results outside the selection of hits, which stands elsewhere. Records with an inconclusive call do not appear. Activity calls are given as the source filed them. Calls follow the shape of the dose curve; as a rule, active = well fitted activation curve with a large enough effect; inconclusive = small, poorly fitted or top-dose-only effect; inactive = no such curve, though single readings can be large or run the other way.

Chains of the proteins cited; added tags and fusions are not shown.
UniProt P04637, whole entry, looked up: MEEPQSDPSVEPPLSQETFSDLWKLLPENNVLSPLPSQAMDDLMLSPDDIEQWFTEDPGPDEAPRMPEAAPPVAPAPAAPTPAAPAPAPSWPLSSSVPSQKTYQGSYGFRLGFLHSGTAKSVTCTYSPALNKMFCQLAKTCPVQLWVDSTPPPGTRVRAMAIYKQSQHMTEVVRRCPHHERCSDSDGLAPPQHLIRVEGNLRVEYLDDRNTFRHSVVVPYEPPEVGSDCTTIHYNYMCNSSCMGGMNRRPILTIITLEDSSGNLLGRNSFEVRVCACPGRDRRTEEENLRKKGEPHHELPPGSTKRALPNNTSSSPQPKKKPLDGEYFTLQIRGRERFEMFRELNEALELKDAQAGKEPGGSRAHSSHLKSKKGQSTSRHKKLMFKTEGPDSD

Target: Cellular tumor antigen p53 (Homo sapiens) (UniProt P04637)
Assay: Primary qHTS for small molecule compounds that upregulate eGFP-tagged delta133p53alpha (in N-terminal) cells. (AID 2060322);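 also: series mostly up to about 56 µM; 0% = DMSO vehicle and 100% = reference activator; nearly all actives have a fitted effect of over 75% in size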
Conditions: NCI-H358 eGFP-delta133p53alpha fluorescence, 24 h; stronger effect = higher value
Method in brief: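 NCI-H358 cells pre-induced 24 h with 10 ng/ml doxycycline to express N-terminal eGFP-delta133p53alpha, then dosed 24 h at 37C without doxycycline; fixed, Hoechst-stained, GFP intensity by laser scanning cytometry, normalized to DMSO (0%) and 57.5 uM 5-azacytidine (100%).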

## CC(C)(C)c1ccc(O)cc1
  activation: inactive: 1.69%
